Record: PubChem BioAssay AID1259307 (Sanger Institute, 2017)
The deposit covers 794 reagents; shown is a random part of them. Over the whole deposit, 15 (1.9%) got an active call. 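Calls reflect lethality without any drug; synergy scores did not enter the calls.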 Viability is capped at 1. No sequences are given here. Not stated in the record: the amount of reagent, the time to read-out.

- Purpose: 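siRNA kinome screen seeking kinases whose loss harms SW620 cells alone or with drugs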 (primary screen)
- System: SW620 colorectal cancer cells
- Reagent: siRNA pool against human genes
- Conditions: anchor drugs BYL719 at 1 µM, cetuximab at 5 µg/ml or trametinib at 10 nM, each beside a DMSO vehicle arm
- Measured: 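Cell viability in each well relative to non-targeting controls, averaged over replicates and turned into a robust z-score; synergy with BYL719 (1 µM), cetuximab (5 µg/ml), trametinib (10 nM) versus DMSO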
- Direction: viability robust z-score, no drug and viability vs control, no drug: higher = more viable cells; synergy score with BYL719 and synergy score with cetuximab and synergy score with trametinib: higher = stronger synthetic lethality with the drug
- Active means: 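a knock-down counts as lethal alone if its drug-free robust viability z-score is lower than -3, regardless of synergy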
- Calls: active = essential (lethal alone); inactive = no change alone

gene | viability robust z-score, no drug | viability vs control, no drug | synergy score with BYL719 | synergy score with cetuximab | synergy score with trametinib | Outcome
AAK1 | -0.984 | 0.841 | 0.065 | -0.111 | 0.0634 | inactive
PFKFB1 | -1.43 | 0.8 | -0.0765 | 0.000149 | 0.0255 | inactive
MAPK4 | 0.736 | 1 | 0.00899 | 0.127 | 0.073 | inactive
TRPM7 | 0.462 | 0.975 | 0.052 | 0.108 | 0.119 | inactive
AK2 | 0.736 | 1 | -0.0919 | 0 | -0.0505 | inactive
ADK | -0.0259 | 0.93 | -0.0507 | -0.0703 | 0.022 | inactive
CSNK2A2 | -0.991 | 0.841 | -0.113 | -0.113 | -0.048 | inactive
ULK1 | 0.187 | 0.949 | -0.136 | -0.0507 | 0.05 | inactive
EPHA7 | 0.736 | 1 | -0.085 | 0.0518 | -0.0319 | inactive
ADGRL2 | 0.736 | 1 | 0.069 | 0.0799 | 0.129 | inactive
STK3 | -0.103 | 0.923 | -0.043 | -0.0208 | -0.0172 | inactive
PRPS1L1 | 0.0962 | 0.941 | 0.014 | 0.0194 | 0.059 | inactive
CDK15 | 0.732 | 1 | 0.0225 | 0.0661 | 0.0554 | inactive
PDK4 | 0.736 | 1 | 0.069 | 0.00834 | 0.0562 | inactive
PFKL | -0.278 | 0.906 | 0.00597 | -0.0815 | -0.114 | inactive
DAPK2 | 0.118 | 0.943 | 0.0189 | -0.027 | 0.0163 | inactive
EXOSC10 | -0.791 | 0.859 | 0.0454 | 0.0369 | -0.00183 | inactive
MAST3 | 0.736 | 1 | 0.0326 | 0 | 0.00498 | inactive
RBKS | 0.736 | 1 | 0.0801 | 0.0073 | -0.0111 | inactive
MAPK6 | -0.0953 | 0.923 | -0.00304 | 0.0465 | 0.106 | inactive
EPHA6 | 0.736 | 1 | 0.148 | 0 | -0.0712 | inactive
CTCF | -0.993 | 0.84 | 0.002 | 0.0215 | 0.0248 | inactive
ULK4 | 0.233 | 0.954 | 0.0368 | 0.102 | -0.0363 | inactive
MED12 | 0.714 | 0.998 | 0.00597 | -0.00206 | 0.0366 | inactive
DCLK2 | -0.163 | 0.917 | -0.0202 | -0.0231 | 0.0177 | inactive
MUSK | -0.467 | 0.889 | 0.0597 | -0.0431 | 0.0592 | inactive
PRKAG3 | -3.18 | 0.638 | -0.04 | -0.134 | -0.131 | active
CALM2 | 0.736 | 1 | 0.00438 | 0 | 0.079 | inactive
RPS6KB1 | 0.396 | 0.969 | 0.0553 | 0.0598 | 0.0692 | inactive
GRK3 | -0.501 | 0.886 | -0.136 | -0.114 | -0.162 | inactive
PTGS1 | -1.16 | 0.825 | 0.0151 | 0.00111 | 0.058 | inactive
GNE | 0.465 | 0.975 | -0.0392 | -0.0143 | 0.0517 | inactive
PTEN | 0.736 | 1 | 0.00692 | 0 | -0.0547 | inactive
PDGFRB | 0.736 | 1 | 0.0827 | 0.0944 | 0.0185 | inactive
MYH10 | 0.681 | 0.995 | -0.00255 | 0.0421 | 0.0832 | inactive
NME2 | -0.729 | 0.865 | -0.105 | -0.131 | -0.0296 | inactive
CPNE3 | 0.736 | 1 | -0.0493 | 0 | 0.0728 | inactive
NUCKS1 | 0.736 | 1 | -0.0919 | 0 | -0.0814 | inactive
IPPK | -2.05 | 0.743 | -0.149 | -0.148 | -0.187 | inactive
PFKM | 0.354 | 0.965 | -0.0881 | -0.0353 | -0.0209 | inactive
GSK3B | 0.231 | 0.953 | -0.0995 | -0.0466 | -0.105 | inactive
RPS6KC1 | 0.557 | 0.983 | 0.0654 | -0.0165 | -0.052 | inactive
FN3KRP | -1.38 | 0.805 | -0.0893 | -0.0829 | -0.0149 | inactive
OBSCN | 0.0394 | 0.936 | -0.15 | -0.0643 | -0.113 | inactive
GRK5 | 0.659 | 0.993 | 0.039 | 0.00349 | 0.0279 | inactive
DCK | -5.24 | 0.449 | -0.188 | -0.0238 | -0.0489 | active
COQ8B | 0.736 | 1 | -0.0766 | 0 | -0.0886 | inactive
PIP5KL1 | 0.422 | 0.971 | 0.117 | -0.0252 | 0.0541 | inactive
NF1 | 0.736 | 1 | -0.0495 | 0.0712 | 0.0029 | inactive
PRKAR1A | -0.554 | 0.881 | -0.0429 | -0.0497 | 0.0486 | inactive
DYRK1A | 0.419 | 0.971 | -0.00818 | -0.0293 | -0.0203 | inactive
MAPKAPK2 | 0.736 | 1 | 0.0592 | 0.0271 | 0.103 | inactive
TP53RK | 0.324 | 0.962 | -0.0667 | 0.0622 | 0.0204 | inactive
ACVR1C | 0.736 | 1 | 0.0399 | 0 | 0.0778 | inactive
KSR2 | 0.736 | 1 | -0.0629 | 0.0839 | 0.103 | inactive
RPS6KL1 | 0.256 | 0.956 | 0.0128 | -0.0443 | -0.0543 | inactive
MATK | -0.853 | 0.853 | -0.0989 | 0.00254 | -0.0641 | inactive
MYO3A | -0.0958 | 0.923 | -0.011 | 0.0865 | -0.00721 | inactive
TLK2 | 0.298 | 0.96 | -0.00395 | 0.00197 | -0.0768 | inactive
CDK1 | 0.736 | 1 | -0.0906 | 0 | -0.164 | inactive
CSNK1E | 0.736 | 1 | -0.0138 | 0.0106 | 0.000866 | inactive
AK7 | -0.725 | 0.865 | -0.125 | -0.0203 | -0.0588 | inactive
COASY | -0.904 | 0.849 | 0.0176 | 0.0619 | 0.0725 | inactive
